# For at least one compound, name, drawing or mass did not settle the structure.
# Assays:
# [1] = tested on: osteosarcoma cell line 143B; format: cell-based; settings: time course 2, 6, 24 hours
# [2] = tested on: HuH-7 cells; settings: time course 2, 6, 24 hours
smiles,measurement,setting,value
NC(N)=O [urea],concentration range in which urea was toxic,[1],250 mM to 1 M
same,concentration range in which urea was toxic,[2],250 mM to 1 M
